Results published in PubChem BioAssay AID2685 (National Center for Advancing Translational Sciences (NCATS), 2010).
“And” between values parts separate entries of the source, which are not always exact repeats. Identical values can stand only once. The list shows a part of the results. Shown are side measurements of this screen, not its main read-out; they come without a call. Most of these compounds were active or inconclusive in the main read-out, so they are no random draw. Potencies come from curve fits of mixed quality, noted in brackets.

Experiment: qHTS Assay for Lipid Storage Modulators in Drosophila S3 Cells;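 for cell number change: cells counted by Cell Tracker Red CMTPX staining in the red channel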
Settings: BODIPY lipid droplet fluorescence, 18-24 h; for cell number change: measured here: cell count max response, cells fed with added oleic acid
How it was run: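 Drosophila S3 cells loaded with oleic acid (400 uM, as added) and compounds at several concentrations; lipid droplets imaged by 488-nm laser-scanning cytometry, 500–530 nm intensity and object ratio to cell channel. Percent activity normalized to 20 uM Triacsin C.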

[1] = measured here: lipid fluorescence (Fed channel) AC50, cells fed with added oleic acid
[2] = measured here: cell number channel AC50, cells fed with added oleic acid

Row | SMILES | cell number change | AC50 [1] | AC50 [2]
1 | CCN(c1ccccc1)S(=O)(=O)c1ccc(C(=O)N(CCCN(C)C)c2nc3c(C)cccc3s2)cc1 | 11.3% | 16.4 µM [falling, single point] | –
2 | CC(C)CC(NC(=O)C1CCCCC1)C(=O)N1CCN(c2ccccn2)CC1 (centres undefined) | 7.14% | 18.4 µM [rising, partial curve] | –
3 | CC(OC(=O)c1cc[n+]([O-])cc1)C(=O)Nc1ccc(C(N)=O)cc1 (centres undefined) | -1.87% | 3.26 µM [rising, partial curve] | –
4 | O=C(Nc1cccc(O)c1)c1ccc(NC(=O)c2cccs2)cc1 | -39% | – | 14.6 µM [falling, single point]
5 | O=C(CNC(=O)c1cccc(OC(F)F)c1)OCn1nnc2ccccc2c1=O | 10.1% | 2.91 µM [rising, partial curve, poor fit] | 2.31 µM [rising, partial curve, poor fit]
6 | Cn1c(Cc2cccs2)nnc1SCC(=O)Nc1ccccc1F | 12.9% | – | –
7 | CC(=O)Nc1ccc(S(=O)(=O)Nc2ccccc2C(=O)N2CCOCC2)cc1 | 2.63% | – | –
8 | COc1ccc(CC(=O)Nc2ccc3nc(SC)sc3c2)cc1OC | 37.3% | 29.1 µM [rising, single point] | –
9 | NC(=O)Nn1c(CCC(=O)O)ccc1-c1ccc(F)cc1 | 36.5% | 11.6 µM [rising, partial curve] | –
10 | Cc1ccc(S(=O)(=O)N2c3ccccc3OCC2c2ccccc2)cc1 (centres undefined) | -30.9% | 20.6 µM [falling, single point] | 18.4 µM [falling, single point]
11 | COc1ccc(CN2CC[C@@H](N3CCOCC3)[C@H](O)C2)cc1F | 33.8% | – | –
12 | Cc1ccc2nc(SCC(=O)Nc3ccc4c(c3)CCC4)[nH]c2c1 | -65.7% | 20.6 µM [falling, single point] | 18.4 µM [falling, single point]
13 | COC(=O)c1cccc(NC(=S)NCc2ccc(Cl)cc2)c1 | 93.2% | – | –
14 | CC(C)CN(Cc1cc2ccccc2[nH]c1=O)C(=O)c1cccnc1 | 22.5% | 2.59 µM [rising, full curve] | 2.59 µM [rising, single point]
15 | NS(=O)(=O)c1ccc(CNC(=O)Cc2ccccc2[N+](=O)[O-])cc1 | – | 0.58 µM [rising, single point] | –
16 | O=C(NC(=S)Nc1c(F)cc(F)cc1Br)c1ccc2c(c1)OCCO2 | – | 5.01 µM [rising, single point] | 3.98 µM [rising, partial curve]
17 | O=C(c1ccc(-n2cnnn2)cc1)N(C1CCCCC1)C1CCCCC1 | -38.3% | 1.16 µM [falling, full curve] | 1.46 µM [falling, full curve, poor fit]
18 | CC1(C)Cc2c(sc(NC(=O)C(=O)N3CCCC3)c2C(N)=O)CO1 | -22.7% | 2.31 µM [falling, partial curve] | –
19 | COc1ccccc1N1CCN(C(=O)CSc2nnc(NC(=O)C(C)C)s2)CC1 | -14.9% | 4.61 µM [falling, full curve] | –
20 | Cc1ccc(C)c(OCCn2nnc3ccccc32)c1 | -9.12% | 6.51 µM [falling, single point] | –

Row | SMILES | cell number change | AC50 [1] | AC50 [2]
21 | CC(C)C(c1nnnn1Cc1ccc(F)cc1)N1CCN(C(=O)c2ccco2)CC1 (centres undefined) | -2.81% | 0.651 µM [falling, single point] | –
22 | CC(C)(C)C(=O)Nc1ccc(C(=O)N/N=C/c2ccccc2OC(=O)c2ccccc2)cc1 | 11.8% | 16.4 µM [falling, single point] | –
23 | Cc1ccc(S(=O)(=O)N2CCC(C(=O)N3CCC(C(=O)NCC4CCCO4)CC3)CC2)cc1 (centres undefined) | -10.4% | 3.26 µM [falling, partial curve] | –
24 | CCCCN(C(=O)COC(=O)c1ccc(C=O)cc1)c1c(N)n(CCC)c(=O)[nH]c1=O | 23.2% | 13 µM [rising, partial curve, poor fit] | –
25 | CC(=O)c1nn(-c2cccc(Br)c2)cc1C(=O)c1ccc2ccccc2c1 | – | 9.2 µM [falling, single point] | –
26 | CC1=CC(=O)c2ccccc2C1=O | -33.4% and -44% | 14.6 µM [falling, partial curve] and 16.4 µM [falling, partial curve] | 16.4 µM [falling, single point] and 14.6 µM [falling, partial curve]
27 | O=C(CN1C(=O)NC2(CCCC2)C1=O)Nc1ccccc1 | -15.9% | 23.1 µM [falling, single point] | –
28 | CCOC(=O)c1c(C)[nH]c(C(=O)OCC(=O)Nc2ccccc2)c1C | -18.2% | 18.4 µM [falling, single point] | –
29 | Cc1ccc(C(=O)Nc2nc3c(s2)CCCC3)o1 | 52.1% | – | 20.6 µM [rising, single point]
30 | COc1ccc(-c2[nH]ncc2/C=N\NC(=O)c2cccs2)cc1OC | -48.7% | – | 29.1 µM [falling, single point]
31 | c1coc(CNc2ncnc3[nH]ncc23)c1 | 9.84% | – | 0.0651 µM [rising, full curve, poor fit]
32 | CCCCCOC(=O)c1[nH]c2c(c1C)C(=O)CC(c1ccco1)C2 (centres undefined) | 17.4% | 0.58 µM [rising, full curve] | –
33 | COc1cccc(CNc2ccc(N3CCC(C)CC3)cc2)c1OC | -39.4% | 25.9 µM [falling, partial curve] | 25.9 µM [falling, partial curve, poor fit]
34 | Cn1c(=O)n(CC(=O)NC2CCCCC2)c(=O)c2ccccc21 | – | – | 0.517 µM [rising, single point]
35 | O=c1[nH][nH]c2nc(C(F)(F)F)cc(C(F)(F)F)c12 | 13.7% | 32.6 µM [rising, partial curve] | –
36 | CCN(CC(=O)Nc1ccc(NC(C)=O)cc1)C(=O)c1ccc2c(c1)OCCO2 | -3.58% | 1.64 µM [rising, partial curve, poor fit] | –
37 | CCn1c(C)nc2cc(-c3nc4n(n3)Cc3ccccc3-4)ccc21 | -78.9% | 11.6 µM [falling, partial curve, poor fit] | 11.6 µM [falling, partial curve, poor fit]
38 | CCCOc1ccc(Cc2c(Cl)nc(SC)nc2NC)cc1 | -50.7% | 3.26 µM [falling, partial curve, poor fit] | 9.2 µM [falling, partial curve]
39 | CCC(=O)N1c2ccc(S(=O)(=O)N3CCN(c4cc(C)ccc4C)CC3)cc2CC1C (centres undefined) | -13% | 6.51 µM [falling, single point] | –
40 | Cn1c(SCCCC(=O)c2ccccc2)nnc1-c1ccncc1 | 1.37% | – | –

Row | SMILES | cell number change | AC50 [1] | AC50 [2]
41 | O=C(CCN1C(=O)c2ccccc2C1=O)NCc1ccco1 | -24.3% | 8.2 µM [falling, partial curve] | –
42 | COC(=O)c1ccc(NC(=O)CCN2CCN(c3ccccc3)CC2)cc1 | 9.21% | 0.0461 µM [rising, full curve, poor fit] | –
43 | FC(F)(F)c1cnc(N2CCC(=NOCc3ccc(Cl)cc3)CC2)c(Cl)c1 | 21.5% | 4.61 µM [falling, single point] | –
44 | CSc1ccc(-c2nc3cnccn3c2Nc2ccc3c(c2)OCO3)cc1 | 35.5% | 16.4 µM [rising, partial curve] | 1.46 µM [rising, partial curve]
45 | Cc1nc2cc(NC(=O)N3c4ccccc4CC3C)ccc2o1 (centres undefined) | – | 1.46 µM [rising, partial curve, poor fit] | –
46 | Cc1cc(=O)[nH]c(N/N=C/c2c(C)nn(-c3ccccc3)c2Cl)n1 | -11.8% | 3.26 µM [falling, partial curve, poor fit] | –
47 | CN(C)S(=O)(=O)c1cc(C(=O)Nc2ccccc2C(=O)NC2CC2)ccc1Cl | -17.3% | 6.51 µM [falling, single point] | –
48 | COc1ccc(C(=O)NCCn2cc(SCC(=O)NCC3CCCO3)c3ccccc32)cc1 (centres undefined) | 3.66% | 10.3 µM [falling, single point] | –
49 | Cc1cc(CN(C)C(=O)CC2C(=O)NCCN2Cc2ccc(F)c(F)c2)on1 (centres undefined) | 7.17% | 3.26 µM [falling, partial curve] | –
50 | Cc1cc(C)c(Cn2c(=O)n(CCCC(=O)NCc3ccco3)c(=O)c3sccc32)c(C)c1 | -34.5% | 3.26 µM [rising, full curve] | 14.6 µM [falling, single point]
51 | COc1ccc(CNC(=S)Nc2ccccc2F)cc1 | -13% | 5.8 µM [falling, full curve, poor fit] | –
52 | COc1ccc(S(=O)(=O)N2CCCC2)c(Cl)c1Cl | -44.2% | – | –
53 | CCOC(=O)C1CCCN(Cc2ccccc2F)C1 (centres undefined) | -2.46% | 29.1 µM [rising, single point] | –
54 | CN1C(=O)c2ccc(C(=O)Nc3cccnc3)cc2C1=O | 4.05% | – | –
55 | Cc1ccc(C(=O)Nc2sc3c(c2C(=O)NCc2ccco2)CCCC3)cc1 | -22.2% | – | –
56 | Cc1ccnc(N/C=C(/NC(=O)c2ccccc2)C(=O)NN)n1 | – | 0.58 µM [rising, single point] | –
57 | Cc1ccc(C(=O)C2CCN(CC(=O)NCc3ccc(F)cc3)CC2)cc1 | -17.9% | – | –
58 | CCOC(=O)C1CCN(S(=O)(=O)c2ccc3c(c2)CCCN3C(C)=O)CC1 | – | – | 6.51 µM [rising, single point]
59 | O=C(CNS(=O)(=O)c1ccc(Br)cc1Cl)OCC(=O)N1CCCC1=O | -10.4% | 7.31 µM [rising, partial curve] | –
